Source: patent US20210214410A1 (Stanford University, published 2021)
These are yes or no findings as the source states them, for the method shown. Some entries that bind do so weakly or less than the wild type.

Biological target: T1, human interleukin 13 receptor alpha 2 (IL-13Rα2), biotinylated (human) (UniProt Q14627)
T1 sequence (biotinylated (site not stated), looked up): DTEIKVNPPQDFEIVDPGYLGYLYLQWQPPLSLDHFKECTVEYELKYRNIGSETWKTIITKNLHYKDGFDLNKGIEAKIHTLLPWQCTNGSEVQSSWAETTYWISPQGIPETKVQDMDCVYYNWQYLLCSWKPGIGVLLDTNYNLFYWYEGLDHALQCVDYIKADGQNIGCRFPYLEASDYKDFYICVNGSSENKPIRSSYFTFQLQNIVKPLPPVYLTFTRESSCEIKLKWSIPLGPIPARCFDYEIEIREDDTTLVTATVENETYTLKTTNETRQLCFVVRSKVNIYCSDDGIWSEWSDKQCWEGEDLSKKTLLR
Experiment: told in words; SPR on captured biotinylated receptor (FIG. 2)

binding: binds
B1: IL-13 variant D7 (IL-13Rα2-selective IL-13 superkine; L10A, V18F, R86K, D87K, K89R, L101I, K104R, R108K) (ligand)
chain: PGPVPPSTAARELIEELFNITQNQKAPLCNGSMVWSINLTAGMYCAALESLINVSGCSAIEKTKRMLSGFCPHKVSAGQFPSLHVKKTRIEVAQFVKDLLIHLRKLFKEGQFNHHHHHH
notes: the first is used here; also called polypeptide D7
